Chains of the proteins cited; added tags and fusions are not shown.
UniProt Q8ILZ2: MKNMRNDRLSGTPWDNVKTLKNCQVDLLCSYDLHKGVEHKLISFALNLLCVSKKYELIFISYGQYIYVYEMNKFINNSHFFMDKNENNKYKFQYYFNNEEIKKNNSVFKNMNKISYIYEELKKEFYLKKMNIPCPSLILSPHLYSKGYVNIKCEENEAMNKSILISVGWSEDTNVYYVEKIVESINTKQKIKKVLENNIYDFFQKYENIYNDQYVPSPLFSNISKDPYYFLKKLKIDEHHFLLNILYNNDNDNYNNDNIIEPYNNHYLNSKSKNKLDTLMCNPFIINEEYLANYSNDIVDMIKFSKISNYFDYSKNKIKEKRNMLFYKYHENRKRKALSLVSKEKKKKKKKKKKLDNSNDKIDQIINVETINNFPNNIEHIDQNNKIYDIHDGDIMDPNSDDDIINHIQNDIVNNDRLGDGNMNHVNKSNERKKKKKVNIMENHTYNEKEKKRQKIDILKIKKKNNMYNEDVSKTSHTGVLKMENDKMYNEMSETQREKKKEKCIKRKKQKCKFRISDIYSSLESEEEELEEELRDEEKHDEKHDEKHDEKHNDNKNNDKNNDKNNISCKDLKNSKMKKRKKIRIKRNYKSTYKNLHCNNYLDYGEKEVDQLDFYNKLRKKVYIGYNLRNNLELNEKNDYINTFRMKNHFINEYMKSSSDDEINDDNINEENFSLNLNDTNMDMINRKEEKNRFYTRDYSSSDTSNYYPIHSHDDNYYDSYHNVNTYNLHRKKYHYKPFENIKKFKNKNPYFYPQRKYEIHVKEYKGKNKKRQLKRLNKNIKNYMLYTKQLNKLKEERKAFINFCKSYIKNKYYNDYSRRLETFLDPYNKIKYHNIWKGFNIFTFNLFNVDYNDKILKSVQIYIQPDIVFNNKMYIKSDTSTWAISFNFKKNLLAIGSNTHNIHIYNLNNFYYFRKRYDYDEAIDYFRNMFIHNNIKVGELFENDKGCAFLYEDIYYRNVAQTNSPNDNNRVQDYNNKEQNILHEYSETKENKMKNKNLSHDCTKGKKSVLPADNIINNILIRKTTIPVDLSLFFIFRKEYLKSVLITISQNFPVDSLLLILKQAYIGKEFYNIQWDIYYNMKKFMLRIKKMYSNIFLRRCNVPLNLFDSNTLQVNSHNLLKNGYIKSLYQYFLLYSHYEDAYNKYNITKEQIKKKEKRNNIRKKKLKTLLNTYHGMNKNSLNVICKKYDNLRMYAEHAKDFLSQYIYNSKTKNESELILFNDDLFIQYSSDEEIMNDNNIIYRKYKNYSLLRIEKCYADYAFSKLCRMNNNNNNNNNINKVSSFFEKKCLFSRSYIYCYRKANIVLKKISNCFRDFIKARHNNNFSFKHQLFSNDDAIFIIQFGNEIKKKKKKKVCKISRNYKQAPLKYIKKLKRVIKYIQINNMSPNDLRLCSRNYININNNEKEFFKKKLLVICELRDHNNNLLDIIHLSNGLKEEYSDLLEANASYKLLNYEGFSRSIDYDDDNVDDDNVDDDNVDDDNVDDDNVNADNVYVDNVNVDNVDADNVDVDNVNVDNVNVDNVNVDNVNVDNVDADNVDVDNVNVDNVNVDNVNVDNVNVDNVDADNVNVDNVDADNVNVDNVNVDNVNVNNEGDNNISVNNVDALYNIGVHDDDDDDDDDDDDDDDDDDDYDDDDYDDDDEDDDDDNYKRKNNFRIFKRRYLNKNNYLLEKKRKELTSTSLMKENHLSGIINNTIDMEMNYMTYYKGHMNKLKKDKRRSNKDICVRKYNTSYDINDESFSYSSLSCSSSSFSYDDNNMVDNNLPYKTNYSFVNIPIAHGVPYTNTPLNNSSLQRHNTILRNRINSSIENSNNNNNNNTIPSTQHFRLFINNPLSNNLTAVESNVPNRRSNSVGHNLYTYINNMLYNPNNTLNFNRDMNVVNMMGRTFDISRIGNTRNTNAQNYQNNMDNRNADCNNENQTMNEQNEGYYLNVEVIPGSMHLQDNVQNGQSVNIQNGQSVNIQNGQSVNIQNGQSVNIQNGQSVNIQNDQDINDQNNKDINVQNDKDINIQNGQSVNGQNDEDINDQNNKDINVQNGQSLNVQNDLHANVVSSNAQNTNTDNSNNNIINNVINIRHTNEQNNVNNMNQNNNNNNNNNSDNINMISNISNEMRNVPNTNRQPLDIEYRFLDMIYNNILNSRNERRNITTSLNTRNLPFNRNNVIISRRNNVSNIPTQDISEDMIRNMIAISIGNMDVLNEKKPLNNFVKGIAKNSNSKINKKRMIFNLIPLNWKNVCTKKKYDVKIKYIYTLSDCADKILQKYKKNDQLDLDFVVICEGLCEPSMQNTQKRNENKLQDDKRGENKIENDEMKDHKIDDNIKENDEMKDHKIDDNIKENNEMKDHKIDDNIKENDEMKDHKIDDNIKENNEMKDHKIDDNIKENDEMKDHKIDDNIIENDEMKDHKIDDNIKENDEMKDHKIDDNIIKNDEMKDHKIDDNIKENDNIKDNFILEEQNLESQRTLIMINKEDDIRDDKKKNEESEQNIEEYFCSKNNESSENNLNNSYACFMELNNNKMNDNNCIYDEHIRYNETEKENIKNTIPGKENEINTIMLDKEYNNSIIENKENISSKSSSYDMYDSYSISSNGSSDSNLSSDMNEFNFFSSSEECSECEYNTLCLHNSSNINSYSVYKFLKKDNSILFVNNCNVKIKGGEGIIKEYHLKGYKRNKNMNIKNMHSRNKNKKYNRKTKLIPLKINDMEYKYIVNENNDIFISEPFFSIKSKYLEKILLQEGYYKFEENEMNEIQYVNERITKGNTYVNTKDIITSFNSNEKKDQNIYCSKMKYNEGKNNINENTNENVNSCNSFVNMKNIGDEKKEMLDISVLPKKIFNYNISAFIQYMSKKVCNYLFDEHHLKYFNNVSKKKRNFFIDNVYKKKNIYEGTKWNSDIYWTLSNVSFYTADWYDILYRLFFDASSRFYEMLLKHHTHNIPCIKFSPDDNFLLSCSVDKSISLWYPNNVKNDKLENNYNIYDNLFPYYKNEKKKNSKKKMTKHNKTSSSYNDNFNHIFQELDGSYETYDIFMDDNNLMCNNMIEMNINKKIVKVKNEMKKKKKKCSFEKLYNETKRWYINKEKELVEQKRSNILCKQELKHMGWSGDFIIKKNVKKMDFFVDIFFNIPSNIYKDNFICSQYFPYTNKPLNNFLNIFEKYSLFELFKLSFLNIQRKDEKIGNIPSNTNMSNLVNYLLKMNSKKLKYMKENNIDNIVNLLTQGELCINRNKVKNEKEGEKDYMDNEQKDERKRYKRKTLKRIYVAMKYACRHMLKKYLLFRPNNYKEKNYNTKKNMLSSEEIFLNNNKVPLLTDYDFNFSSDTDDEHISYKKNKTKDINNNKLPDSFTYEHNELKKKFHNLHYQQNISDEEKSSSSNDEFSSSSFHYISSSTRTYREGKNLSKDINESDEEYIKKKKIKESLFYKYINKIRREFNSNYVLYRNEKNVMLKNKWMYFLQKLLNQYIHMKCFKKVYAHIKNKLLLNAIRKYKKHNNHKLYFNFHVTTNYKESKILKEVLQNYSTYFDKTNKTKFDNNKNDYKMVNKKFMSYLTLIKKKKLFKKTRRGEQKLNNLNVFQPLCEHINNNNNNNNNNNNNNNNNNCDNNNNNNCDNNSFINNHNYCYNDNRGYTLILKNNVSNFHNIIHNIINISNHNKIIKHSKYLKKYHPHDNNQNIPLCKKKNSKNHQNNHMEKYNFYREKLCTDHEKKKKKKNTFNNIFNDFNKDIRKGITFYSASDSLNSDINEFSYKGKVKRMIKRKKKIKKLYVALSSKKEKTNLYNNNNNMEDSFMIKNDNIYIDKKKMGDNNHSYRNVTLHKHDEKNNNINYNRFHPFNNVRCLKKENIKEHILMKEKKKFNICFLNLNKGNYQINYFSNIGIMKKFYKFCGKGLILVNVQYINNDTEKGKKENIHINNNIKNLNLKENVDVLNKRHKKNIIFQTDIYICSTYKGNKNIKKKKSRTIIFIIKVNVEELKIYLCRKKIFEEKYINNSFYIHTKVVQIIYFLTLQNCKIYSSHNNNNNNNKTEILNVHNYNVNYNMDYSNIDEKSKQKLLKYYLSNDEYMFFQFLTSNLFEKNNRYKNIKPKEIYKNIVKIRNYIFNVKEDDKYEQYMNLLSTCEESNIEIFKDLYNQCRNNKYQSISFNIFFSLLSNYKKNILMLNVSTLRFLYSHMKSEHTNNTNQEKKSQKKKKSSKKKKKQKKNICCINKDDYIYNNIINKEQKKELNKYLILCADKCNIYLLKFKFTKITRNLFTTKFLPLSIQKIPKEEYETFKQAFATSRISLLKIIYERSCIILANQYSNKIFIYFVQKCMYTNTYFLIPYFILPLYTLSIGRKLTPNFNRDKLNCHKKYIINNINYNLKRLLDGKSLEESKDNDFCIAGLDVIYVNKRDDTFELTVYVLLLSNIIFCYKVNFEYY

According to publication PMC12218279:

B1: leucine rich repeat protein PF3D7_1123300 (protein, UniProt Q8IID0 1-689)
chain: MANDLGEISNKQKGYMENNEKNSEKNNEINNEVTYKIINEIKNDTVRNNMVKEGNKNINKKHNESNVNIVGNKKYESDINMKNKSDEEKCKAFFKHEPCLKNVLRNIFLKSKSNKCYDDDNNNDDNNNDDNNNDDNNNDDNNNDDNNSSNNNNDDNNNDDNNSSNNNNDDNNNDDNNSSNNNNDDDFYTCTNTSIDKEINNNNVKNKKQKECINNEEKIPSEVECAICMKLLIVPVTIPCGHNFCRDCIEKAKEYKNLCPLCRSNMGDKKNINLLLGELIKQKYPLTYSKRLEEIENLKLEQEKKVIKERINAINNSSIIPIFKAPLIFGPYFPGEVFDINIYNKRFIDLIYFISNEGTFAITSSKEKNDEKKLYGIHVKILEQKKSNQVFYLKCVANFRVLLYNITLFTDYGNFVGLHSPLFDENISINFLTSHIINNTTVHTDSTNITYGNYNNEQDVGLSNNTNIGGKEKIGDLKKLLYQIEVEEDINLISYYYEQYKNITNMGELIDNNNDNNNNNDDNNNDDNNNNNNNSNNNSNNNNNNNNITNIVKYHCCIILSKICLLCIKNQLNRFGSAGVMLFNTKFRNIKLTSSEPSKEELEKFSYSLSCAIISRSVLKWKWFKITDTYERLESITQYFLKKKNKSILALDNSRSPLIHRFFMLDSISSSLIILVFFLIIICIKYFIY
B2: PfMCM2 (protein, UniProt Q8ILR7 1-971)
chain: MEDKKKLEEDLESNKYDIDEEDLLEDEGRLNEEERQAELEGESLFEEDEGFIFGADDEKKEMQKLRNLGLDNDDYDDDFIDDELDYEDNLKARRAAERHMQMQRKQEGKYEKNKFWKTLEDQLEGDDEEEDIFDKVAEKVAKRRENLHLTAEETDIPDLSNLESAKICLSVNPKDVVFDERYQQAADTCFRYFLHKFSLKDSMGLNIDESNTELHEEEHMNSSHQYYIDKIEKMILNDKHTLIVSAKHLIQFHCENLVQWIEFKPEQILEVLHECLMVEAYRISPKLYKGRICKVVLRDWPYSTQLRNLRCTELNTLIKVTGVCIKRGYVLPKLRVMYLKCNSCDTTLSEVPIYFADGKKPVLPRRCPHCQSATFSVDRIKTAYTDYQKITLQESPCSVPAGRAPRQREVVVTGDLVDKVKPGEEVEVLGIYKTKYDIGLNIKYGFPILQTEIEANNIERKEDIQLSELTEDDIKDILKLSKDPNIRERIITSIAPAIWGHKDIKTSIAYALFGGVQKGGDKSFSKNNETNNFGVQNRDILNNFKGGHTIRGDINVLLLGDPGLGKSQVLQYVHKTNLRTVYTTGKGASAVGLTAGVRKDHTTNEWTLEGGALVLADEGICIIDEFDKMTDKDRVSIHEAMEQQSISISKAGIVTTLRARCAVIAAANPIYGRYDPSLTFKENVDLSDPILSRFDLITVLRDIPNVDEDFYLAEYVVTNHQLSHPKLENTQNYQKRIENLKNVIVSSSAYEPIPQDLLQKYIIYARTNCKPSLSDVPYAEISAKLSNFYSRVRQKASASGGYPLTLRHIESIIRIAEANAKMRLSHQIYSKDVDYAIATLLESYVSCQRFAVAKQLSKEFARYRALFRGGYEVLRELLRRTVQQMIQRQNLKNASAKDFQNDSESGTESEAEILNPNNVFLPLHIFMKTAMQNKFSEYQVVNWMKSKVFNEHYAVIKRDGVEGIISKKFKV
B3: PfMCM3 (protein, UniProt Q8I3J5 1-962)
chain: MESLSIEKNSTPFGRSEYRTFNSELNYTLMDSSLNHSSILDNSMKIEKDSRDKRLQKLNQNIVSEYESGRQSVVFTQQKYKQLLEGFLLFVQTNKYIHQKITELRTEAIDEYNRMQNKNIPNIIIHQRLICNINNFQTGNEQFELLAKCLIKEPYLALPAYQAAIKELWKSEDSKVDIDPPKIGICGWLGRHHVTPRGLQSSMINKLVAVEGVVNKCSTVQPKLVQSVYIGEAVHDMNADAKTSEKTVHLRPHYDITDFDKTAKDSGRPPASDPEGRIMHKHEIGLCKYKNHQKFVIQETPEDAPTGQMPRWVEVIVEDDLCDIVKCGDRVRVWGVYRANCGQANSTNSGLGRSFLIANNVLVKNKETYDSNLCISEADKKNFHAFAKKDNTIDILGYSFAPSICGQDIVKKAIVLMLAGGTERALPSHHIRGDIHIMLVGDPSCGKSQLLRYVMSIMPGTVSATGRGSSGVGLTAAIVTDQDTGERVVEGGAMVMGDRRVVCIDEFDKMQPTDRVAIHEVMEQQTVTVAKAGIHTTLNARCTVLAAANPLYGCWNDALDMGQQLQFEPSLLSRFDLIFLVRDSATEQDDERIAESVLRNVTEKAKPIMNESRNNQKNFVIQADSYDINPKAQHISIYNERDINQNNDSNNMQENEEYETPIFANRDEMIYYDKNGVEHEILTVPFFKKYLHYVKNIFYHEKQRTDGWKPYPEVSDEACEVITELYADLRERASKYSHNKLIQGVTPRTLEAIIRIASSHAKLKLNRYVTSVDVNYAKKLLMYTLFGEEIIDSNEEDEEEDEEEEEEEEEEDELEEDEEDDDDEEEKLKKKRRQRQKRASRKRSGEKKDLASNKKKKKKSEQPNENGNENYMIDDLPSNKSNDTLDIKEIERLIVENVTLNDPGDGLKDVELLDLIILGNKDKMPELSKLDINQLRQIINSLNDMDGAPIYYVKKDKIVYKC
B4: PfMCM5 (protein, UniProt Q8I5T4 1-758)
chain: MIGIQEGRAFFNPTRNPNNRPENNIRIEENLPSLNEVYNYFQDFLSRYSSNTLKEGNLKRTLFENVKNNNFTLDLKLDDIYKQQTVFENNEISATPRSERKMKKPENYSAILARALSERPLTYLPTIERVCYEVCETANILNDEDEHLNYIQINLLNTFIRPTPIRGLLAATQERFVVVPGIIVQASKPQHKMRKITLQCRYCDHKMSIDVPLWRDKPQLPPYCRYSSTMKSSMGLGNAMDSQLGCNGVLEPYVILPNECTFVDIQSLKMQELPEAVPTGDMPRHLQLNVTRYLCEKMIPGDRVYVHGVLTSYNPNPRPTRADGTNFSYLHVLGFQKYDDMSGNDLNFDVEERNELTLLAAEHNIHEKIFKSIAPELYGMDEVKKACACLLFGGTRKRIGEETKIRGDINMLMLGDPSVAKSQILKFVNRCAPVSVYTSGKGSSAAGLTAAVMRDSQGVFSLEGGAMVLADGGVVCIDEFDKMRDDDVVAIHEAMEQQTISISKAGITTMLNTRCSVIAAANPSFGSYDDSQDTTYQHDFKTTILSRFDIIFLLRNKQDVEKDTLLCNHIVALHASKHKSQEGEIPLSKLTRYIQYAKREIAPLLSKEARDSLRNFYVQTRAEYRGDRRSVTKKIPITLRQLESLIRLAESFAKMELSQFATDKHVQMSIDLFSASTAETAKQCLIFETMSPLEQKAVKQAEDAILGRLGKGQRASRVNLFRELQLRGFDRSALSKALAILIKKGELQERGDRSVRRT
B5: PfFBOX06 (protein, UniProt C6KSY8 1-604)
chain: MGKSNIFRRIHQNNTFNMKMNKKHHIDNECIFNNCTPLSTPRSISYIMNSNECYDYKTNKIEYISCLKFCPKQYNNIFKNSDIICNILSFLSFSERWKFRLLNKSFYQAFHTKYAWANIDFRFLNVDLFNFIKKYNKLFLNTFSLSMSINGDQSVEMIINFIFKHFNKLKDLRLYFRKKNANFIYESVHPIVSNLLNCKYLKNNNNNNNRNRKEMHKRKKKNSLYQKKQALTTTNNNNNNNNNDNNNDDNNNNNNGNHINCTHANHNNNYGNNYNECNDSNEHCREKENLQTSNFSPDIHIGQENSPNISRHAKKKKKNKQIDTSPTKKEKNIEHIHNTYNSYLDSVNHYNDIHNNLRDDNFDNIENSSSSTHSSSEKQCTPFSYEHMDCNFELNDYFLQNNHYQKYLQKKNKEKKNEIVEKYLHIIQSKKIWASKRLNISNNFQYLERLIIDVELKGEELLCFVGKLNNLKDIIISKLVYSNKLNRSQSIIIFTSFIEKMKRNNIRLIQLGLYFRMEHKPIDYLNNEKFRKILSERKEYVYDINKEEGDELIYILQKNHLNSLYCLWSNDLFISFEMYEQIKKFNNLKIWILPGWRALSLAKQ

Tests used:
[1] = biological target: T1, PfRBX1-HA (P. falciparum) (UniProt O77367); test: affinity purification with mass spectrometry; anti-HA agarose immunoprecipitation of PfRBX1-HA from schizont lysate (0.5X RIPA buffer, 1 h at room temperature), LC-MS/MS (DIA); parental DiCre strain as control
T1 sequence: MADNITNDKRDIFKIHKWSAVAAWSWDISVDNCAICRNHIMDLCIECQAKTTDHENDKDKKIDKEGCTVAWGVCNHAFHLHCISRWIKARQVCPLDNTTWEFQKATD

[2] = biological target: T2, PfMCM4-Flag (P. falciparum) (UniProt Q8IEE5); test: affinity purification with mass spectrometry; anti-Flag agarose immunoprecipitation of PfMCM4-Flag from schizont lysate (0.5X RIPA buffer), LC-MS/MS; DiCre strain as control; also from DiCre-PfSKP1-HA and DiCre-PfRBX1-HA backgrounds pre-treated with DMSO or rapamycin
T2 sequence: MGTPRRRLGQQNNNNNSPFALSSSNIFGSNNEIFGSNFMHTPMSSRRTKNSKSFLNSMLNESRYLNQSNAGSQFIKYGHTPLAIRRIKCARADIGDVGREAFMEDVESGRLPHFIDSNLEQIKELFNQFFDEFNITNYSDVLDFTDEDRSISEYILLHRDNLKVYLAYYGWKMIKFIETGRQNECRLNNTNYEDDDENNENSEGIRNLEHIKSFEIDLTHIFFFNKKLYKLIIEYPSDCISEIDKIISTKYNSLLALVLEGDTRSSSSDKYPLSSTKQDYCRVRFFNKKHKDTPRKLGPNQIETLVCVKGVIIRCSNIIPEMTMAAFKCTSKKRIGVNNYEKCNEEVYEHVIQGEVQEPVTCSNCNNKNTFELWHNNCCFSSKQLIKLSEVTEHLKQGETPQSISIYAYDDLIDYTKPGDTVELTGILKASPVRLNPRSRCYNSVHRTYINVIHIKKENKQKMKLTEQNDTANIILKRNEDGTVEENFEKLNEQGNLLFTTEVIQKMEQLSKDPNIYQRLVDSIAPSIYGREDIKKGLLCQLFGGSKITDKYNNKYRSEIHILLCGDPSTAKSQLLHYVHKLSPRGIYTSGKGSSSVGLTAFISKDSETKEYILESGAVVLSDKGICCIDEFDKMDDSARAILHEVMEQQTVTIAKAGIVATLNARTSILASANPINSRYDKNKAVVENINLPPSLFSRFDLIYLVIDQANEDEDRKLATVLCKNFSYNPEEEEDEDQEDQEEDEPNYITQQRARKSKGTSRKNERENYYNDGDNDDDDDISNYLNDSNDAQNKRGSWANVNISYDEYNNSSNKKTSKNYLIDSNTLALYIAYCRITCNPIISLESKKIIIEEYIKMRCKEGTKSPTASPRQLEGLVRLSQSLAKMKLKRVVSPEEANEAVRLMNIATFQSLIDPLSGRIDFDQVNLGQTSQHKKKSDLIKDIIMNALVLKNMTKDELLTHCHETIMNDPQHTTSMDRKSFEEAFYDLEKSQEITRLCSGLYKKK

Molecule	binding [1]	binding [2]
PfNEDD8	binds	
WD-repeat protein PF3D7_1410300 (from UniProt Q8ILZ2 1-4405)	binds	
PfCPSFA (P. falciparum Cleavage and Polyadenylation Specific Factor Subunit A) (from UniProt O77380 1-2870)	binds	
B1	binds	
B2		binds
B3		binds
B4		binds
B5	binds	

These are yes or no findings as the source states them, for the method shown. In cells and extracts the contact can be indirect. These calls come from enrichment with a bait or labelling near it, and not all partners need be listed. Sequences can lack the tags named with a protein.
